These are yes or no findings as the source states them, for the method shown. Binding seen in cells or lysates may run through a third protein. Some entries that bind do so weakly or less than the wild type. Tags and fused reporters may be left off the sequences shown.
Target: T1, ASNA-1::GFP (C. elegans) (UniProt P30632)
T1 sequence: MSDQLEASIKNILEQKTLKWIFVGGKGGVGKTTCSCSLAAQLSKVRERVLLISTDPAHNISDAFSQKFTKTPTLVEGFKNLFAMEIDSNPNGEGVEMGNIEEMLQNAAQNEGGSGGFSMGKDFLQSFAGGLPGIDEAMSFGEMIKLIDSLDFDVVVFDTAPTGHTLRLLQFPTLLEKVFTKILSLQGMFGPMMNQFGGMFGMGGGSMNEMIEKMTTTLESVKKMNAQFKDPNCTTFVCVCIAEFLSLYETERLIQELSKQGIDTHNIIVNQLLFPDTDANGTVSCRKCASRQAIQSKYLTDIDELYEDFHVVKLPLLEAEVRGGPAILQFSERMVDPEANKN
Test: co-IP

B1: 3xFlag::ENPL-1 (protein, UniProt Q22235 24-760)
chain: EDEIEDAPKETKEETREEDSIKLDGLSVSQIKELRSKAEKHEFQAEVNRMMKLIINSLYRNKEIFLRELISNASDALDKIRLLSLTDPEQLRETEEMSVKIKADRENRLLHITDTGVGMTRQDLINNLGTIARSGTSEFLSKLMDTATSSDQQQDLIGQFGVGFYAAFLVADRVVVTTKNNDDDQYIWESDSASFTISKDPRGNTLKRGTQITLYLKEEAADFLEPDTLKNLVHKYSQFINFDIFLWQSKTEMVEEAVEEEPATTEDGAVEEEKEEKKTKKVEKTTWDWEKVNNVKPIWMRKPNQVEEDEYKQFYKSITKDSEEPLSHVHFSAEGEVSFRSILYVPKKSPNDMFQNYGKVIENIKLYVRRVFITDDFADMLPKYLSFIRGIVDSDDLPLNVSRENLQQHKLLKVIKKKLVRKVLDMLKKLDGAQFDDFWSEFSTNIKLGVMEDPSNRMRLAKLLRFQSSNDADKTTTLAAYVERMKEKQDAIYYMAGTSRKEVETSPFVERLIAKGYEVLFLTEAVDEYCIQAMPEYESKKFQNVAKEGVTIDDGEKAKEAHKGLEEEFKPLTDWLKETALKDLIEKAVVSQRLVKSPSALVASSYGWSGNMERIMKSQAYAKAKDPTQDFYATQKKTFEINPRHPVIKELLKRVTASEEDTTAASTAKLLFETATLRSGFSLQDQVGFADRIEAVLRQSLDVSQDAQVETEQHIEEAEPEPEAAEETTIEEEHSEL
- binding: binds
